Experimental data taken from ChEMBL document CHEMBL4316593 (Eur J Med Chem, 2019).
Further values from the same series stand in other lists.

Experiments:
Format in all cases: cell-based
Details in all cases: U-87MG ATCC
[1] = Inhibition of RTK/PI3K/AKT/mTOR signaling in human U87 cells assessed as up regulation of transmembrane protein 67 gene expression at cytotoxic IC50 measured after 48 hrs relative to control
[2] = Inhibition of RTK/PI3K/AKT/mTOR signaling in human U87 cells assessed as down regulation of ASB6 gene expression at cytotoxic IC50 measured after 48 hrs relative to control
[3] = Inhibition of RTK/PI3K/AKT/mTOR signaling in human U87 cells assessed as down regulation of ZNF669 gene expression at cytotoxic IC50 measured after 48 hrs relative to control
[4] = Inhibition of RTK/PI3K/AKT/mTOR signaling in human U87 cells assessed as up regulation of TPI1 gene expression at cytotoxic IC50 measured after 48 hrs relative to control
[5] = Inhibition of RTK/PI3K/AKT/mTOR signaling in human U87 cells assessed as up regulation of PPL gene expression at cytotoxic IC50 measured after 48 hrs relative to control
[6] = Inhibition of RTK/PI3K/AKT/mTOR signaling in human U87 cells assessed as down regulation of RALY gene expression at cytotoxic IC50 measured after 48 hrs relative to control
[7] = Inhibition of RTK/PI3K/AKT/mTOR signaling in human U87 cells assessed as up regulation of pleckstrin homology and RhoGEF domain containing G1 gene expression at cytotoxic IC50 measured after 48 hrs relative to control
[8] = Inhibition of RTK/PI3K/AKT/mTOR signaling in human U87 cells assessed as up regulation of MTND2 gene expression at cytotoxic IC50 measured after 48 hrs relative to control
[9] = Inhibition of RTK/PI3K/AKT/mTOR signaling in human U87 cells assessed as up regulation of out at first homolog gene expression at cytotoxic IC50 measured after 48 hrs relative to control
[10] = Inhibition of RTK/PI3K/AKT/mTOR signaling in human U87 cells assessed as down regulation of ARAP2 gene expression at cytotoxic IC50 measured after 48 hrs relative to control
[11] = Inhibition of RTK/PI3K/AKT/mTOR signaling in human U87 cells assessed as down regulation of GSR gene expression at cytotoxic IC50 measured after 48 hrs relative to control
[12] = Inhibition of RTK/PI3K/AKT/mTOR signaling in human U87 cells assessed as down regulation of ADRM1 gene expression at cytotoxic IC50 measured after 48 hrs relative to control
[13] = Inhibition of RTK/PI3K/AKT/mTOR signaling in human U87 cells assessed as down regulation of NAGK gene expression at cytotoxic IC50 measured after 48 hrs relative to control
[14] = Inhibition of RTK/PI3K/AKT/mTOR signaling in human U87 cells assessed as down regulation of ODC1 gene expression at cytotoxic IC50 measured after 48 hrs relative to control
[15] = Inhibition of RTK/PI3K/AKT/mTOR signaling in human U87 cells assessed as up regulation of membrane associated ring-CH-type finger 9 gene expression at cytotoxic IC50 measured after 48 hrs relative to control
[16] = Inhibition of RTK/PI3K/AKT/mTOR signaling in human U87 cells assessed as down regulation of ZFYVE9 gene expression at cytotoxic IC50 measured after 48 hrs relative to control
[17] = Inhibition of RTK/PI3K/AKT/mTOR signaling in human U87 cells assessed as up regulation of CC2D2A gene expression at cytotoxic IC50 measured after 48 hrs relative to control
[18] = Inhibition of RTK/PI3K/AKT/mTOR signaling in human U87 cells assessed as up regulation of proteolipid protein 2 gene expression at cytotoxic IC50 measured after 48 hrs relative to control
[19] = Inhibition of RTK/PI3K/AKT/mTOR signaling in human U87 cells assessed as up regulation of calcium voltage-gated channel auxiliary subunit beta 3 gene expression at cytotoxic IC50 measured after 48 hrs relative to control
[20] = Inhibition of RTK/PI3K/AKT/mTOR signaling in human U87 cells assessed as up regulation of lectin, mannose binding 1 gene expression at cytotoxic IC50 measured after 48 hrs relative to control
[21] = Inhibition of RTK/PI3K/AKT/mTOR signaling in human U87 cells assessed as up regulation of GDF15 gene expression at cytotoxic IC50 measured after 48 hrs relative to control
[22] = Inhibition of RTK/PI3K/AKT/mTOR signaling in human U87 cells assessed as up regulation of homeobox D8 gene expression at cytotoxic IC50 measured after 48 hrs relative to control
[23] = Inhibition of RTK/PI3K/AKT/mTOR signaling in human U87 cells assessed as up regulation of limb and CNS expressed 1 like gene expression at cytotoxic IC50 measured after 48 hrs relative to control
[24] = Inhibition of RTK/PI3K/AKT/mTOR signaling in human U87 cells assessed as down regulation of ENDOD1 gene expression at cytotoxic IC50 measured after 48 hrs relative to control
[25] = Inhibition of RTK/PI3K/AKT/mTOR signaling in human U87 cells assessed as up regulation of ST6 N-acetylgalactosaminide alpha-2,6-sialyltransferase 4 gene expression at cytotoxic IC50 measured after 48 hrs relative to control
[26] = Inhibition of RTK/PI3K/AKT/mTOR signaling in human U87 cells assessed as down regulation of WAC gene expression at cytotoxic IC50 measured after 48 hrs relative to control
[27] = Inhibition of RTK/PI3K/AKT/mTOR signaling in human U87 cells assessed as up regulation of ATP binding cassette subfamily C member 4 gene expression at cytotoxic IC50 measured after 48 hrs relative to control
[28] = Inhibition of RTK/PI3K/AKT/mTOR signaling in human U87 cells assessed as up regulation of phospholipase D family member 3 gene expression at cytotoxic IC50 measured after 48 hrs relative to control
[29] = Inhibition of RTK/PI3K/AKT/mTOR signaling in human U87 cells assessed as down regulation of FBXL5 gene expression at cytotoxic IC50 measured after 48 hrs relative to control
[30] = Inhibition of RTK/PI3K/AKT/mTOR signaling in human U87 cells assessed as down regulation of ZNF280C gene expression at cytotoxic IC50 measured after 48 hrs relative to control
[31] = Inhibition of RTK/PI3K/AKT/mTOR signaling in human U87 cells assessed as down regulation of GLRX2 gene expression at cytotoxic IC50 measured after 48 hrs relative to control
[32] = Inhibition of RTK/PI3K/AKT/mTOR signaling in human U87 cells assessed as up regulation of ADP ribosylation factor interacting protein 2 gene expression at cytotoxic IC50 measured after 48 hrs relative to control

CC(=O)C(=NNc1ccccc1C#N)C(C)=O
log2FC [1]: 1.19
log2FC [2]: -1.05
log2FC [3]: -1.48
log2FC [4]: 0.457
log2FC [5]: 0.415
log2FC [6]: -0.987
log2FC [7]: 0.727
log2FC [8]: 1.24
log2FC [9]: 1.01
log2FC [10]: -1.08
log2FC [11]: -0.337
log2FC [12]: -1.21
log2FC [13]: -0.983
log2FC [14]: -0.988
log2FC [15]: 1.34
log2FC [16]: -0.639
log2FC [17]: 1.92
log2FC [18]: 0.948
log2FC [19]: 0.856
log2FC [20]: 0.84
log2FC [21]: 2.89
log2FC [22]: 1.2
log2FC [23]: 1.04
log2FC [24]: -0.809
log2FC [25]: 1.18
log2FC [26]: -0.377
log2FC [27]: 0.805
log2FC [28]: 0.808
log2FC [29]: -0.784
log2FC [30]: -1.23
log2FC [31]: -1.19
log2FC [32]: 0.779
